Source: patent US8541460B2, “PDK-1/Akt signaling inhibitors” (The Ohio State University, priority 2003, dated 2013)
Some results were stated once for a whole list of compounds, not compound by compound.

Test system: sixty human tumor cell lines
Assay: NCI DTP screen, means over sixty human tumor cell lines
Type: cell-based
Method: Screening of compounds 70 and 71 against several cancer cell lines The human tumor cell lines of the cancer screening panel are grown in RPMI 1640 medium containing 5% fetal bovine serum and 2 mM L-glutamine. For a typical screening experiment, cells are inoculated into 96 well microtiter plates in 100 μL at plating densities ranging from 5,000 to 40,000 cells/well depending on the doubling time of individual cell lines. After cell inoculation, the microtiter plates are incubated at 37° C., 5% CO2, 95% air and 100% relative humidity for 24 h prior to addition of experimental drugs. […]
Following drug addition, the plates are incubated for an additional 48 h at 37° C., 5% CO2, 95% air, and 100% relative humidity. […] Bound stain is subsequently solubilized with 10 mM trizma base, and the absorbance is read on an automated plate reader at a wavelength of 515 nm. […] Using the seven absorbance measurements [time zero, (Tz), control growth, (C), and test growth in the presence of drug at the five concentration levels (Ti)], the percentage growth is calculated at each of the drug concentrations levels. Percentage growth inhibition is calculated as: [(Ti−Tz)/(C−Tz)]×100 for concentrations for which Ti>/=Tz [(Ti−Tz)/Tz]×100 for concentrations for which Ti<Tz
Three dose response parameters are calculated for each experimental agent. […]

In the case of NCC(=O)Nc1ccc(-n2nc(C(F)(F)F)cc2-c2ccc3c(ccc4ccccc43)c2)cc1 [Compound 70, 2-Amino-N-{4-[5-(2-phenanthrenyl)-3-(trifluoromethyl)-1H-pyrazol-1-yl]-phenyl}-acetamide], the “range at which cell growth is completely suppressed in a diverse range of tumor cell lines” value is reported as 3 to 5 µM and the “concentrations at which many cell lines were responsive to the growth inhibitory effect” value (two-day exposure, 5% FBS-containing medium) is reported as ≥ 0.1 µM.
